{"source": "PubChem BioAssay AID1688", "about": "(National Center for Advancing Translational Sciences (NCATS), 2009)", "note": "Screen size: about 220,000 compounds; about 2,400 (1.1%) were called active. The inconclusive results got no clear call from the source; some entries with a clear call stand among them for comparison. Calls follow the shape of the dose curve; as a rule, active = well fitted inhibition curve with a large enough effect; inconclusive = small, poorly fitted or top-dose-only effect, or effect the other way; inactive = no such curve, though single readings can be large or run the other way. Potencies of inconclusive entries are doubtful fits and often do not repeat. % is scaled to controls: 0 for no effect and ±100 for the full control effect; potency is read from the fitted curve at half-maximal effect.", "data": [{"assay": "qHTS Multiplex Assay to Identify Dual Action Probes in a Cell Model of Huntington: Aggregate Formation (GFP); also: nearly all actives have a fitted effect of over 60% in size", "details": "PC12 HttQ103-GFP aggregates, Acumen cytometry, 40 h; activity change, negative = inhibition: at 46.1 µM (top of the series) unless noted", "procedure,_shortened": "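Using laser scanning cytometry, GFP-positive aggregates were counted after lysis of PC12 cells induced with 100 nM tebufenozide to express HTT exon 1 Q103–GFP. Compounds were tested in titration.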", "values": [{"smiles": "CC(C)C(=O)N1CCN(c2ccc([N+](=O)[O-])cc2Cl)CC1", "Potency": "inactive"}, {"smiles": "O=C(N/N=C/c1coc2ccccc2c1=O)c1cc(O)cc(O)c1", "Potency": "inactive"}, {"smiles": "CCOc1cccc(/C(O)=C2/C(=O)C(=O)N(CCOC)C2c2ccco2)c1", "note": "(configuration not stated)", "Potency": "inactive"}, {"smiles": "CCOCCCNC(=O)C(c1ccc(OC)cc1)N(Cc1ccc2c(c1)OCO2)C(=O)c1ccccn1", "note": "(configuration not stated)", "Potency": "inactive"}, {"smiles": "O=C(c1cc(COc2ccc3ncccc3c2)on1)N1CCC(O)CC1", "activity change, negative = inhibition": "inactive: -18.3% [at 9.22 µM]"}, {"smiles": "CNC(=O)c1ccsc1NC(=O)c1ccc(S(=O)(=O)N2CCc3ccccc32)cc1", "Potency": "inconclusive: 12.6 µM [inhibitor, single point]"}, {"smiles": "CSc1nc(-c2ccc(C)cc2)nc(C(Cl)Cl)n1", "Potency": "inconclusive: 3.55 µM [inhibitor, single point]"}, {"smiles": "COc1ccc(Cn2nnnc2C(CC(C)C)N2CCN(c3ccccc3)CC2)cc1", "note": "(configuration not stated)", "Potency": "inconclusive: 35.5 µM [inhibitor, single point]"}, {"smiles": "Cc1ccc(-c2cc(-c3ccco3)c3c(N)c(C(=O)NN)oc3n2)cc1", "activity change, negative = inhibition": "inactive: 0.662% [at 9.22 µM]"}, {"smiles": "Cc1ccc(S(=O)(=O)N(C)C)cc1NC(=S)NNC(=O)C1CC1", "Potency": "inactive"}, {"smiles": "CC(=O)O[C@H]1C[C@@]2(C)[C@@H](C[C@@H](O)[C@H]3[C@@]4(C)CC[C@@H](O)[C@@H](C)C4CC[C@@]32C)/C1=C(\\CCC=C(C)C)C(=O)O", "note": "(some centres not stated)", "Potency": "inconclusive: 11.2 µM [activator, partial curve]"}, {"smiles": "CCN1CCN(CCNC(=O)c2ccc(CS(=O)(=O)c3c(Cl)cccc3Cl)o2)CC1", "Potency": "inconclusive: 2.82 µM [activator, single point]"}, {"smiles": "N#Cc1ccc(-c2ccc3c(c2)OCO3)nc1SCC(=O)OCc1ccccc1", "Potency": "inconclusive: 14.1 µM [activator, partial curve, poor fit]"}, {"smiles": "C/C(=N\\NC(=O)C(C)Oc1ccc([N+](=O)[O-])cc1)c1ccccn1", "note": "(configuration not stated)", "Potency": "active: 10 µM"}, {"smiles": "CCOC(=O)N1CCC(NC(=O)c2ccc3c(c2)N(Cc2ccccc2)CCS3)CC1", "Potency": "inconclusive: 11.2 µM [inhibitor, single point]"}, {"smiles": "COc1ccc(OCCCC(=O)Nc2nc(-c3ccccn3)cs2)cc1", "Potency": "inactive"}, {"smiles": "Cc1cccc(NC(=S)NCc2cccs2)c1C", "Potency": "inactive"}, {"smiles": "CC(C)CSc1ccc(S(=O)(=O)NCC(=O)O)cc1[N+](=O)[O-]", "Potency": "inactive"}, {"smiles": "Cc1ccccc1N1CCN(C2=NC(=O)/C(=C/c3cn[nH]c3-c3ccccc3)S2)CC1", "Potency": "inconclusive: 7.08 µM [activator, partial curve]"}, {"smiles": "CCCCCCCCCCn1c2c(c(=N)c3c1CCC3)CCC2", "Potency": "active: 1 µM"}, {"smiles": "O=C(C1CCN(S(=O)(=O)c2ccccc2)CC1)N1CCOCC1", "Potency": "inconclusive: 0.562 µM [inhibitor, full curve, poor fit]"}, {"smiles": "CN1C/C(=C\\c2ccc(N3CCOCC3)cc2)C(=O)/C(=C/c2ccc(N3CCOCC3)cc2)C1", "Potency": "inconclusive: 35.5 µM [activator, partial curve]"}, {"smiles": "Cc1ccc(Cl)cc1NC(=O)C[n+]1ccc(Cc2ccc([N+](=O)[O-])cc2)cc1", "Potency": "inactive"}, {"smiles": "NCCNC(=O)Cc1cccc(NC(=O)Cc2ccc(Nc3ncnc4c3ncn4[C@@H]3O[C@H](CO)[C@@H](O)[C@H]3O)cc2)c1", "Potency": "inconclusive: 0.355 µM [activator, full curve, poor fit]"}, {"smiles": "CCOc1ccccc1NC(=O)CN(c1ccc(OC)cc1)S(=O)(=O)c1c(C)noc1C", "Potency": "inactive"}, {"smiles": "CC(NC(=O)OCc1ccccc1)C(=O)Oc1cc2oc(=O)cc(-c3ccccc3)c2cc1Cl", "note": "(configuration not stated)", "Potency": "active: 8.91 µM"}, {"smiles": "CCOC(=O)Cc1csc(NC(=S)NC(=O)c2ccc(C)cc2)n1", "Potency": "inactive"}, {"smiles": "CCC(C)NC(=O)CC(NS(=O)(=O)c1ccc(Cl)cc1)c1ccco1", "note": "(configuration not stated)", "Potency": "inconclusive: 0.891 µM [activator, full curve]"}, {"smiles": "O=C(Nc1ccccc1)c1cc(Cl)nc2ccccc12", "Potency": "inconclusive: 17.8 µM [inhibitor, single point]"}, {"smiles": "COc1ccc(C(=O)COC(=O)C(CCSC)NS(=O)(=O)c2ccc(Cl)cc2)cc1", "note": "(configuration not stated)", "Potency": "inactive"}, {"smiles": "Cc1ccc2nc(-c3ccccc3)c(CN3CCN(c4ccccc4F)CC3)n2c1", "Potency": "inconclusive: 17.8 µM [inhibitor, single point]"}, {"smiles": "CC(=O)c1c(C)[nH]c(C(=O)Nc2ccc(Cl)c(S(=O)(=O)N3CCOCC3)c2)c1C", "Potency": "inconclusive: 17.8 µM [inhibitor, single point]"}, {"smiles": "CCOc1ccc(NC(=O)Nc2cccs2)cc1", "Potency": "inactive"}, {"smiles": "CC(=NCCc1c(C)[nH]c2ccc(C)cc12)C1=C(O)CC(c2ccccc2)CC1=O", "note": "(configuration not stated)", "Potency": "inconclusive: 20 µM [inhibitor, single point]"}, {"smiles": "O=C(NCc1ccco1)/C(=C\\c1ccco1)NC(=O)c1ccc(Br)o1", "Potency": "inconclusive: 17.8 µM [activator, partial curve]"}, {"smiles": "Cc1cc(C(=O)Cn2ncc(Cl)c(Cl)c2=O)c(C)n1CC(F)(F)F", "Potency": "inconclusive: 35.5 µM [inhibitor, single point]"}, {"smiles": "CCCn1c(NC(=O)c2ccccc2Br)nc2ccccc21", "Potency": "inconclusive: 12.6 µM [inhibitor, single point]"}, {"smiles": "S=C(NCCN1CCOCC1)N/N=C/c1c2ccccc2cc2ccccc12", "Potency": "inconclusive: 15.8 µM [inhibitor, single point]"}, {"smiles": "O=C(COc1ncnc2ccccc12)c1ccc2c(c1)OCCO2", "Potency": "inconclusive: 35.5 µM [inhibitor, single point]"}, {"smiles": "Cc1ccc(-c2cc(C(=O)NCc3ccccn3)c3ccccc3n2)cc1C", "Potency": "inconclusive: 11.2 µM [inhibitor, single point]"}, {"smiles": "COc1ccc2oc(=N)c(-c3nnc4n3CCCCC4)cc2c1", "Potency": "inactive"}, {"smiles": "O=C(Nc1ccc(F)cc1)Nc1nnc(COc2ccccc2F)s1", "Potency": "inconclusive: 14.1 µM [inhibitor, single point]"}, {"smiles": "CCOC(=O)c1cnc(Nc2nc3ccccc3o2)nc1CSC(=S)N1CCCCC1", "Potency": "inconclusive: 5.01 µM [activator, single point]"}, {"smiles": "Cc1cc(Oc2nc3c(C)cccn3c(=O)c2/C=C(\\C#N)S(=O)(=O)c2ccccc2)ccc1Cl", "Potency": "inconclusive: 3.55 µM [activator, partial curve]"}, {"smiles": "O=C(/C=C/c1ccccc1)N1CCC(Cc2ccccc2)CC1", "Potency": "inactive"}, {"smiles": "O=S(=O)(Nc1ccc(O)c(Sc2nc3ccccc3s2)c1)c1cccc2ccccc12", "Potency": "inactive"}, {"smiles": "COc1ccc(S(=O)(=O)Oc2ccc3ccccc3c2)cc1", "Potency": "inconclusive: 22.4 µM [inhibitor, single point]"}, {"smiles": "Cc1cccc2nc(-c3cccc(NC(=O)c4ccc(Cl)cc4)c3)cn12", "Potency": "inactive"}, {"smiles": "CCn1c(C)nc2cc(C(=O)NNC(=O)Nc3ccc(Cl)c(Cl)c3)ccc21", "Potency": "inconclusive: 8.91 µM [inhibitor, full curve, poor fit]"}, {"smiles": "O=C(/C=C/c1cccc(Br)c1)NCC1CCCCC1", "Potency": "inactive"}, {"smiles": "Cc1ccc(/C=N\\NC(=O)C2CN(S(=O)(=O)c3ccccc3)CCN2S(=O)(=O)c2ccccc2)cc1", "note": "(configuration not stated)", "Potency": "inactive"}, {"smiles": "O=C(Oc1ccc(-c2cnc3ccccc3n2)cc1)c1cc([N+](=O)[O-])ccc1Cl", "Potency": "inactive"}, {"smiles": "Fc1cccc(Nc2ncnc3[nH]ncc23)c1", "Potency": "inconclusive: 12.6 µM [inhibitor, single point]"}, {"smiles": "Cc1cccn2c(/C=N/OCc3cccc(F)c3)c(-c3ccc(Cl)cc3)nc12", "Potency": "inactive"}, {"smiles": "O=C(N/N=C/c1ccc[nH]1)c1cc(-c2ccc(Cl)cc2)nc2ccccc12", "Potency": "inconclusive: 28.2 µM [inhibitor, partial curve]"}, {"smiles": "CCn1c(SCC(=O)N/N=C/c2ccc(OC)c(OC)c2)nc2ccccc21", "Potency": "inconclusive: 0.282 µM [activator, partial curve]"}, {"smiles": "COc1ccc(CNc2oc(Cc3cccc4ccccc34)nc2C#N)cc1", "Potency": "inconclusive: 15.8 µM [inhibitor, single point]"}, {"smiles": "Cc1cc(C)c(C(N)=O)c(NC(=O)Nc2ccccc2Cl)n1", "Potency": "inconclusive: 3.98 µM [activator, full curve, poor fit]"}, {"smiles": "COc1nc(Nc2ccc(C(C)=O)cc2)nc(OC)n1", "Potency": "inconclusive: 1.58 µM [activator, partial curve]"}, {"smiles": "O=c1c2ccccc2[nH]c(=S)n1Cc1ccc2c(c1)OCO2", "Potency": "inactive"}, {"smiles": "C(=C\\CSc1nnnn1-c1ccccc1)/CSc1nnnn1-c1ccccc1", "Potency": "inactive"}, {"smiles": "Cc1cc(=O)oc2cc(NC(=O)c3cc4ccccc4o3)ccc12", "Potency": "inactive"}, {"smiles": "CCNc1ccc(Br)cc(C(=O)/C=C/c2ccc3c(c2)OCO3)c1=O", "Potency": "inconclusive: 35.5 µM [activator, single point]"}, {"smiles": "COc1ccc(/C=N/NC(=O)c2cccnc2)cc1CSc1nc2ccccc2s1", "Potency": "inconclusive: 12.6 µM [inhibitor, partial curve]"}, {"smiles": "CC(C)CCN1CCN(Cc2nc3c(s2)CCCC3)CC1CCO", "note": "(configuration not stated)", "Potency": "inactive"}, {"smiles": "COc1cc(/C=N/S(=O)(=O)CCc2ccccc2)ccc1O", "Potency": "inactive"}, {"smiles": "CCc1cccc(NC(=O)c2ccc3c(=O)n4c(nc3c2)CCCCC4)c1", "activity change, negative = inhibition": "inactive: 2.71% [at 9.22 µM]"}, {"smiles": "Clc1ccc(-c2nnc(-c3ccccc3Cl)o2)cc1", "Potency": "inactive"}, {"smiles": "Cc1cc(C)c[n+](C(C)C(=O)c2ccc(-c3ccccc3)cc2)c1", "note": "(configuration not stated)", "Potency": "inconclusive: 7.08 µM [inhibitor, partial curve]"}, {"smiles": "O=C(Nc1ccc(N2CCOCC2)c(Cl)c1)c1ncn[nH]1", "Potency": "inconclusive: 1.78 µM [inhibitor, partial curve]"}, {"smiles": "CCCSc1nc2[nH]ncc2c(=O)[nH]1", "Potency": "inconclusive: 4.47 µM [inhibitor, full curve, poor fit]"}, {"smiles": "O=C(N/N=C/c1sc2ccccc2c1O)c1cccc2ccccc12", "Potency": "active: 1.41 µM"}]}]}
